According to article PMC8893695, “The microprotein Nrs1 rewires the G1/S transcriptional machinery during nitrogen limitation in budding yeast” (PLoS Biology, 2022):
These are yes or no findings as the source states them, for the method shown. In cells and extracts the contact can be indirect. Some entries that bind do so weakly or less than the wild type. Where a sequence is shown, tags or fusion partners need not be part of it.

Key:
[1] = target: T1, Swi4^3FLAG (S. cerevisiae) (UniProt P25302); test: co-IP; Swi4^3FLAG or Swi6^3FLAG captured on anti-FLAG M2 resin from extracts of cells treated with 200 nM rapamycin (2 h; 3 h in the replicate); all alleles from endogenous promoters; blots with anti-FLAG and anti-MYC
T1 sequence: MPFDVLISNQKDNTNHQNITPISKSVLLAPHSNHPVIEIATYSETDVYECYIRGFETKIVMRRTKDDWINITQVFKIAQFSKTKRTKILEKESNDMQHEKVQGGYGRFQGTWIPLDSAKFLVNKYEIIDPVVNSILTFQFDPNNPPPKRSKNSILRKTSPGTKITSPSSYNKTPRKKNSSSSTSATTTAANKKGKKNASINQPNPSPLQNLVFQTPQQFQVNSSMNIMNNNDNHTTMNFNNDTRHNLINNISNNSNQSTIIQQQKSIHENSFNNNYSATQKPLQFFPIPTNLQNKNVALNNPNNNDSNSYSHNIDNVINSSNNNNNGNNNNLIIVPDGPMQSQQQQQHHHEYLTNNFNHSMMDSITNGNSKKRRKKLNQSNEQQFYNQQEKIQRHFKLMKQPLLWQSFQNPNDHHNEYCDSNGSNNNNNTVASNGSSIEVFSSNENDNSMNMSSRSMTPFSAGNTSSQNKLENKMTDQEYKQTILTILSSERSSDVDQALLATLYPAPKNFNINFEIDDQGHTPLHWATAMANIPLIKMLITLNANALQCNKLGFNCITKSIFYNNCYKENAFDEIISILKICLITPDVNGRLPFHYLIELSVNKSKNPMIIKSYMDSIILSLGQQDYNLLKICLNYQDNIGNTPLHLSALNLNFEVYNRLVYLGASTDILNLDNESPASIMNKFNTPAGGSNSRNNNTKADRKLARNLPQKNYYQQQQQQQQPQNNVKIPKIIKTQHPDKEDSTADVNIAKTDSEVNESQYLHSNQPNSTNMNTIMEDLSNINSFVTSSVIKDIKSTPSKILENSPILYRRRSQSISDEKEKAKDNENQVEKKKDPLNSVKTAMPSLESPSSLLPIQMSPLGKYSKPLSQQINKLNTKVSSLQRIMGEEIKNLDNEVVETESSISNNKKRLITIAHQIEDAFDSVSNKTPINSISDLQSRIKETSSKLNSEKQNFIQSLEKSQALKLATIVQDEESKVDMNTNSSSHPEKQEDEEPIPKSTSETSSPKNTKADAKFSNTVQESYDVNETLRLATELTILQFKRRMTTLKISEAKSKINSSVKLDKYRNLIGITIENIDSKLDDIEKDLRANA

[2] = target: T2, Swi6^3FLAG (S. cerevisiae) (UniProt P09959); test: as above
T2 sequence: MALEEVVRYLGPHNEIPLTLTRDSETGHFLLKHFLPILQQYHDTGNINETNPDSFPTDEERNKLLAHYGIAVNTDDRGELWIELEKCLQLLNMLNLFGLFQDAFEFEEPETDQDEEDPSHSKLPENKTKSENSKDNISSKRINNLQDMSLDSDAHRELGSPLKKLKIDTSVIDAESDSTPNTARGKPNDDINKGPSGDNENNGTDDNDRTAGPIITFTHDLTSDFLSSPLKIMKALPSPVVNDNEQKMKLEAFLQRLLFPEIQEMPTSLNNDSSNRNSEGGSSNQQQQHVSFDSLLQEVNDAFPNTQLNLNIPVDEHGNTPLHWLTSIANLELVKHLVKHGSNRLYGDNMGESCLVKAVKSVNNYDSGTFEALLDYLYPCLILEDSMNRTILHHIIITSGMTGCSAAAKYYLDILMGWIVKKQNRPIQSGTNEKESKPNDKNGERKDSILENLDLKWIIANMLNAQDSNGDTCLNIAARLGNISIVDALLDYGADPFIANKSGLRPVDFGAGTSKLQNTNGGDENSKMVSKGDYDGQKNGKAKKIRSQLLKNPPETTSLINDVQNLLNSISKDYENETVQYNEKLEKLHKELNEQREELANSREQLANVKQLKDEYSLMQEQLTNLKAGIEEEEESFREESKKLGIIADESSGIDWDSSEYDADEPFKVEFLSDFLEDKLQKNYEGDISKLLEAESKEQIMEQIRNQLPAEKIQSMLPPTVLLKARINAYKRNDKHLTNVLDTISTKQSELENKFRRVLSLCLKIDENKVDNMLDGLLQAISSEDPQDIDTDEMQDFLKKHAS

- binding [1]: binds
- binding [2]: binds
B1: Whi5^13MYC (protein, UniProt Q12416 1-295)
chain: MSLRTPKRSRTSDEQEQEQEQEQVQNPDTHVNNEHQQRPGPTTLLSTPVRLKNGFGTPSPPSPPGITKSITKSRRRPSTTSLQGIFMSPVNKRRVGITAHGRVYDHNDDGHESESEDDENEEENENQKKYDGHVSMPLLPPTTPKSRRSEVFLSPSPRLRSPPTAARRSTGERPIREISHTLRTRLNYALVKLQNGWTDKTLPELETELAPAVQTPPRRYHNRFPDSADAGTSAHTAFLQALGGHPPREEATAVETLMLLSSPTKKQQHRPVPATSAGEPTDETEPESDTEVETS
